Reference: publication PMC6445148
No constants are given. Whether binding was seen depends on the method and setting. Binding seen in cells or lysates may run through a third protein. Some entries that bind do so weakly or less than the wild type.

The chains behind the UniProt entries cited, without tags or fusion partners.
UniProt Q8R4B8: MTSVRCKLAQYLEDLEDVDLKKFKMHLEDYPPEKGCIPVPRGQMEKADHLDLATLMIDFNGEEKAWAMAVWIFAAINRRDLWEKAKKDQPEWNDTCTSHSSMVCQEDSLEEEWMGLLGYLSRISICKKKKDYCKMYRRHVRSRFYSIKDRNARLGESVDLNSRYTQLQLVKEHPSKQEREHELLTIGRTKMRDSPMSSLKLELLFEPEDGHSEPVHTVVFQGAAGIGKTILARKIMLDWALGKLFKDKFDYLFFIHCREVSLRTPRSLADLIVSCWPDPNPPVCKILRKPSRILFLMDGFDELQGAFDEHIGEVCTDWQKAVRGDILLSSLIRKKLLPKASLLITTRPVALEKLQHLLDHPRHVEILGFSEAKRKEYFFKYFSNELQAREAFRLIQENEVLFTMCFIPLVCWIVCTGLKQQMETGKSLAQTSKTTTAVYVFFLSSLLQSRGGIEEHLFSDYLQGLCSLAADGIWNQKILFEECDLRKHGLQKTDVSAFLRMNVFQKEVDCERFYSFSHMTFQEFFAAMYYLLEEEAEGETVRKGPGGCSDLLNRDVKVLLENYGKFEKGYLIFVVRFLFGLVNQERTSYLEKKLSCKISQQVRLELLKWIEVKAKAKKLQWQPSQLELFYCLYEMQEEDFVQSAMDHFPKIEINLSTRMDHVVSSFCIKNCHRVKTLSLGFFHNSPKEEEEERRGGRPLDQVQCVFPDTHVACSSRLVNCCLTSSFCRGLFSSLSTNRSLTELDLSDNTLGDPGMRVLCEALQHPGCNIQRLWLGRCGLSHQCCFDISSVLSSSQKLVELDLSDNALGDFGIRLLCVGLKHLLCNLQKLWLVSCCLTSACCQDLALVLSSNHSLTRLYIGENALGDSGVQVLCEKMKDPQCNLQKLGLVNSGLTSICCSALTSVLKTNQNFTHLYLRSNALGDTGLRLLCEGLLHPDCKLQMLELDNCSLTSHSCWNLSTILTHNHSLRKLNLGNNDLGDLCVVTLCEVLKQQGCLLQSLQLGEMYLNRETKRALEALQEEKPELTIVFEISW
UniProt Q3UP24: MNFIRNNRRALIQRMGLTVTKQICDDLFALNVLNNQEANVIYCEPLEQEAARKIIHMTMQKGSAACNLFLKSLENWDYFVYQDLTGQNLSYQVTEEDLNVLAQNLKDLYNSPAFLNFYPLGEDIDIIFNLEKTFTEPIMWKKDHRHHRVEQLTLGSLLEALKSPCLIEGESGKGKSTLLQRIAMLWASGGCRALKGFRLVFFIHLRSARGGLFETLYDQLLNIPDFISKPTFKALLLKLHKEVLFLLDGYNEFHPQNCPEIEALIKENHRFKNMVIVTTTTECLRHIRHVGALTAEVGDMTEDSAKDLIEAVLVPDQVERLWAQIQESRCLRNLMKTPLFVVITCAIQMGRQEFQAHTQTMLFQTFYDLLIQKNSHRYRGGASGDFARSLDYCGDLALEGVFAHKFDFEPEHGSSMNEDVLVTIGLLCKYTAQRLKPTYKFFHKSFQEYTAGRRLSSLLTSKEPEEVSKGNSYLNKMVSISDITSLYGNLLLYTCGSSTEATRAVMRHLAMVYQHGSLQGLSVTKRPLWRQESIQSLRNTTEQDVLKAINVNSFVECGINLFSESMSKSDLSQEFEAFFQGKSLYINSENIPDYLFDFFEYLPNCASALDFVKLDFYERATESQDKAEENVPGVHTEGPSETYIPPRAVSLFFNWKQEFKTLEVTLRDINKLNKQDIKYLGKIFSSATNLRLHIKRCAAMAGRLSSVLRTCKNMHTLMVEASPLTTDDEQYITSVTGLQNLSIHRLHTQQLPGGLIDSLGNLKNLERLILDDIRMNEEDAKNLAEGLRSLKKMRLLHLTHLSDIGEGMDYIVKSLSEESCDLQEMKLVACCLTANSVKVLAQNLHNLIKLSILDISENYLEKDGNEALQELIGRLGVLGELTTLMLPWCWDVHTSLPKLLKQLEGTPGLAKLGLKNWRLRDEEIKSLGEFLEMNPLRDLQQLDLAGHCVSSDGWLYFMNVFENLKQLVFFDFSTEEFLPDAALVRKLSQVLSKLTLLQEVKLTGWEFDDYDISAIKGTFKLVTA

T1: apoptosis-associated speck-like protein containing CARD (ASC) (mouse (endogenous in iBMDMs)) (UniProt Q9EPB4)
T1 sequence: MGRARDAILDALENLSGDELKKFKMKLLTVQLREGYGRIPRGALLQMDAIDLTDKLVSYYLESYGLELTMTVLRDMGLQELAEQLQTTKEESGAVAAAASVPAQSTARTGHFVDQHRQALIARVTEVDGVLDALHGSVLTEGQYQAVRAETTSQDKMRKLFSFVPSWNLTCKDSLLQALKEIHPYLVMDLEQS

T2: Nono (mouse (endogenous in iBMDMs)) (UniProt Q99K48)
T2 sequence: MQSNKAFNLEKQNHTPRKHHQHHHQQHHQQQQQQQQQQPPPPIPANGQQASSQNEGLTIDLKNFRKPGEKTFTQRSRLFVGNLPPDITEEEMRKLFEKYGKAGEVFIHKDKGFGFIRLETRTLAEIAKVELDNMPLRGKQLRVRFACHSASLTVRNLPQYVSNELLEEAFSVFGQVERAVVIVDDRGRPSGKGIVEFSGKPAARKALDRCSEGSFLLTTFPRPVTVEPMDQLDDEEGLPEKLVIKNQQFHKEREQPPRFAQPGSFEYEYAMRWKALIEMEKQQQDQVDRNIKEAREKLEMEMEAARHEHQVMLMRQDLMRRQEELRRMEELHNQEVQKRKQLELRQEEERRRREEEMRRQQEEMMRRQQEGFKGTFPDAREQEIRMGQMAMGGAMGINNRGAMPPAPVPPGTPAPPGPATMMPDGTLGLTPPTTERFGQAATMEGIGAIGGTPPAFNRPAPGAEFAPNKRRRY


Tests used:
[1] = molecular target: T1, apoptosis-associated speck-like protein containing CARD (ASC) (mouse (endogenous in iBMDMs)); experiment: co-IP; lysates of control or Neat1_1-expressing iBMDMs primed with LPS and stimulated with flagellin or poly(dA:dT); immunoprecipitated with ASC antibody or normal rabbit IgG; western blotting
[2] = molecular target: T2, Nono (mouse (endogenous in iBMDMs)); experiment: co-IP; endogenous paraspeckle proteins in lysates of untreated, LPS-primed, flagellin-, poly(dA:dT)- or 2DG-activated iBMDMs; western blotting
[3] = molecular target: NLRP3 (mouse (endogenous in iBMDMs)) (UniProt Q8R4B8); experiment: co-IP; endogenous proteins in lysates of control or Neat1_1-overexpressing iBMDMs; precipitating antibody not told in the text shown (Supplementary Fig. 1m); protein A/G magnetic beads, western blotting

Molecule	binding [1]	binding [2]	binding [3]
NLRC4 (from UniProt Q3UP24 1-1024)	binds		
AIM2 (protein, UniProt Q91VJ1 1-354) MESEYREMLLLTGLDHITEEELKRFKYFALTEFQIARSTLDVADRTELADHLIQSAGAASAVTKAINIFQKLNYMHIANALEEKKKEAERKLMTNTKKRGTQKVENRSQAENCSAASATRSDNDFKEQAATEVCPQAKPQKKQMVAEQEAIREDLQKDPLVVTVLKAINPFECETQEGRQEIFHATVATETDFFFVKVLNAQFKDKFIPKRTIKISNYLWHSNFMEVTSSSVVVDVESNHEVPNNVVKRARETPRISKLKIQPCGTIVNGLFKVQKITEEKDRVLYGIHDKTGTMEVLVLGNPSKTKCEEGDKIRLTFFEVSKNGVKIQLKSGPCSFFKVIKAAKPKTDMKSVE	binds		
Pspc1 (protein, UniProt Q8R326 1-523) MMLRGNLKQVRIEKNPARLRALESAAGESEPVAAAAMALTLAGEQAPPPAPSEEHPDEELGFTIDIKSFLKPGEKTYTQRCRLFVGNLPTDITEEDFKRLFERYGEPSEVFINRDRGFGFIRLESRTLAEIAKAELDGTILKSRPLRIRFATHGAALTVKNLSPVVSNELLEQAFSQFGPVEKAVVVVDDRGRATGKGFVEFAAKPPARKALERCGDGAFLLTTTPRPVIVEPMEQFDDEDGLPEKLMQKTQQYHKEREQPPRFAQPGTFEFEYASRWKALDEMEKQQREQVDRNIREAKEKLEAEMEAARHEHQLMLMRQDLMRRQEELRRLEELRNQELQKRKQIQLRHEEEHRRREEEMIRHREQEELRRQQEGGFKPNYMENREQEMRMGDMGPRGAINMGDAFSPAPAGTQGPPPMMGMNMNNRGTIPGPPMGPGPAMGPEGAANMGTPMIPDNGAVHNDRFPQGPPSQMGSPMGNRTGSETPQAPMSGVGPVSGGPGGFGRGSQGGNFEGPNKRRRY		binds	

Further lines, results first:

binding [1]	binding [2]	binding [3]	Molecule
	binds		Sfpq (protein, UniProt Q8VIJ6 1-699) MSRDRFRSRGGGGGGFHRRGGGGGRGGLHDFRSPPPGMGLNQNRGPMGPGPGGPKPPLPPPPPHQQQQQPPPQQPPPQQPPPHQQPPPHQPPHQQPPPPPQESKPVVPQGPGSAPGVSSAPPPAVSAPPANPPTTGAPPGPGPTPTPPPAVPSTAPGPPPPSTPSSGVSTTPPQTGGPPPPPAGGAGPGPKPGPGPGGPKGGKMPGGPKPGGGPGMGAPGGHPKPPHRGGGEPRGGRQHHAPYHQQHHQGPPPGGPGPRTEEKISDSEGFKANLSLLRRPGEKTYTQRCRLFVGNLPADITEDEFKRLFAKYGEPGEVFINKGKGFGFIKLESRALAEIAKAELDDTPMRGRQLRVRFATHAAALSVRNLSPYVSNELLEEAFSQFGPIERAVVIVDDRGRSTGKGIVEFASKPAARKAFERCSEGVFLLTTTPRPVIVEPLEQLDDEDGLPEKLAQKNPMYQKERETPPRFAQHGTFEYEYSQRWKSLDEMEKQQREQVEKNMKDAKDKLESEMEDAYHEHQANLLRQDLMRRQEELRRMEELHSQEMQKRKEMQLRQEEERRRREEEMMIRQREMEEQMRRQREESYSRMGYMDPRERDMRMGGGGTMNMGDPYGSGGQKFPPLGGGGGIGYEANPGVPPATMSGSMMGSDMRTERFGQGGAGPVGGQGPRGMGPGTPAGYGRGREEYEGPNKKPRF
binds		binds	pro-caspase-1 (protein, UniProt P29452 1-402) MADKILRAKRKQFINSVSIGTINGLLDELLEKRVLNQEEMDKIKLANITAMDKARDLCDHVSKKGPQASQIFITYICNEDCYLAGILELQSAPSAETFVATEDSKGGHPSSSETKEEQNKEDGTFPGLTGTLKFCPLEKAQKLWKENPSEIYPIMNTTTRTRLALIICNTEFQHLSPRVGAQVDLREMKLLLEDLGYTVKVKENLTALEMVKEVKEFAACPEHKTSDSTFLVFMSHGIQEGICGTTYSNEVSDILKVDTIFQMMNTLKCPSLKDKPKVIIIQACRGEKQGVVLLKDSVRDSEEDFLTDAIFEDDGIKKAHIEKDFIAFCSSTPDNVSWRHPVRGSLFIESLIKHMKEYAWSCDLEDIFRKVRFSFEQPEFRLQMPTADRVTLTKRFYLFPGH
